{"source": "PubChem BioAssay AID1671195, Yale University, 2021", "purpose": "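Regulators of LDL receptor activity judged by labelled LDL uptake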 (primary screen)", "system": "human Huh7 hepatoma cells", "reagent": "siRNA pool against human genes, 18 nM", "timing": "about 2 to 2.5 days of knockdown, then 8 h LDL uptake", "challenge": "DiI-labelled LDL at 30 µg/ml for 8 h, in lipoprotein-deficient serum medium", "read-out": "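Per-cell DiI-LDL intensity by automated imaging; well means scaled to the plate median and given as a robust z-score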", "reading the numbers": "robust z-score: higher = more LDL uptake after knockdown", "hit rule": "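Active when two or more replicates show a robust z-score above 2 or below -2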", "note": "Here is a random part of about 22,000 reagents tested. Of all reagents, about 1,510 (6.9%) were called active. 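Active includes knockdowns raising or lowering LDL uptake; positive z-scores mean more uptake, negative mean less.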 Unmarked entries are inactive. Reagent sequences are not shown."}
{"target gene": "MXD1 (GeneID 4084)", "robust z-score, replicate 1": 0.751, "robust z-score, replicate 2": 0.451, "robust z-score, replicate 3": 0.511}
{"target gene": "ESYT1 (GeneID 23344)", "robust z-score, replicate 1": 0.591, "robust z-score, replicate 2": 1.12, "robust z-score, replicate 3": 1.47}
{"target gene": "AMBRA1 (GeneID 55626)", "robust z-score, replicate 1": 0.709, "robust z-score, replicate 2": -0.498, "robust z-score, replicate 3": 0.798}
{"target gene": "GPR132 (GeneID 29933)", "robust z-score, replicate 1": -0.83, "robust z-score, replicate 2": -1.97, "robust z-score, replicate 3": -1.06}
{"target gene": "LINC00487 (GeneID 400941)", "robust z-score, replicate 1": 0.298, "robust z-score, replicate 2": 0.231, "robust z-score, replicate 3": 0.398}
{"target gene": "KNSTRN (GeneID 90417)", "robust z-score, replicate 1": 1.17, "robust z-score, replicate 2": 0.347, "robust z-score, replicate 3": 1.02}
{"target gene": "KRCC1 (GeneID 51315)", "robust z-score, replicate 1": 0.822, "robust z-score, replicate 2": -1.47, "robust z-score, replicate 3": -1.6}
{"target gene": "ASPRV1 (GeneID 151516)", "robust z-score, replicate 1": -1.53, "robust z-score, replicate 2": -1.69, "robust z-score, replicate 3": -2.29}
{"target gene": "TMIGD1 (GeneID 388364)", "robust z-score, replicate 1": 0.928, "robust z-score, replicate 2": 0.901, "robust z-score, replicate 3": 0.687}
{"target gene": "LOC402340 (retired record) (GeneID 402340)", "robust z-score, replicate 1": 1.79, "robust z-score, replicate 2": 0.49, "robust z-score, replicate 3": 2.05}
{"target gene": "HIPK4 (GeneID 147746)", "robust z-score, replicate 1": -0.248, "robust z-score, replicate 2": -0.438, "robust z-score, replicate 3": -0.55}
{"target gene": "LOC391035 (retired record) (GeneID 391035)", "robust z-score, replicate 1": -0.676, "robust z-score, replicate 2": -0.389, "robust z-score, replicate 3": -0.412}
{"target gene": "LOC440491 (retired record) (GeneID 440491)", "robust z-score, replicate 1": 0.515, "robust z-score, replicate 2": -0.131, "robust z-score, replicate 3": 0.559}
{"target gene": "UNC13B (GeneID 10497)", "robust z-score, replicate 1": -0.792, "robust z-score, replicate 2": -0.886, "robust z-score, replicate 3": -0.367}
{"target gene": "LINC02072 (GeneID 440446)", "robust z-score, replicate 1": "2.25 (active)", "robust z-score, replicate 2": 2.53, "robust z-score, replicate 3": 1.43}
{"target gene": "CEP43 (GeneID 11116)", "robust z-score, replicate 1": 0.543, "robust z-score, replicate 2": 0.134, "robust z-score, replicate 3": 0.301}
{"target gene": "OR2W3 (GeneID 343171)", "robust z-score, replicate 1": -1.22, "robust z-score, replicate 2": -1.06, "robust z-score, replicate 3": -0.92}
{"target gene": "WASH3P (GeneID 374666)", "robust z-score, replicate 1": "2.66 (active)", "robust z-score, replicate 2": 3, "robust z-score, replicate 3": 2.68}
{"target gene": "PAX8 (GeneID 7849)", "robust z-score, replicate 1": -1.92, "robust z-score, replicate 2": -1.84, "robust z-score, replicate 3": -1.86}
{"target gene": "ALMS1 (GeneID 7840)", "robust z-score, replicate 1": -0.263, "robust z-score, replicate 2": 0.791, "robust z-score, replicate 3": 0.621}
{"target gene": "FSHB (GeneID 2488)", "robust z-score, replicate 1": 2.74, "robust z-score, replicate 2": 0.34, "robust z-score, replicate 3": 1.69}
{"target gene": "PIK3R5 (GeneID 23533)", "robust z-score, replicate 1": 1.68, "robust z-score, replicate 2": 0.0432, "robust z-score, replicate 3": 0.0024}
{"target gene": "MRPL3 (GeneID 11222)", "robust z-score, replicate 1": "-2.14 (active)", "robust z-score, replicate 2": -2.59, "robust z-score, replicate 3": -1.64}
{"target gene": "H2BC7 (GeneID 8343)", "robust z-score, replicate 1": 0.125, "robust z-score, replicate 2": 0.527, "robust z-score, replicate 3": 0.621}

Ordered by “robust z-score, replicate 1” (high to low): 2 of the entries above
{"target gene": "AMBRA1 (GeneID 55626)", "robust z-score, replicate 1": 0.709, "robust z-score, replicate 2": -0.498, "robust z-score, replicate 3": 0.798}
{"target gene": "GPR132 (GeneID 29933)", "robust z-score, replicate 1": -0.83, "robust z-score, replicate 2": -1.97, "robust z-score, replicate 3": -1.06}
